For the experiment, the target named is T1, promyelocytic leukemia zinc finger (PLZF) protein found in a human heart cDNA library (human) (UniProt Q05516).
T1 sequence (looked up): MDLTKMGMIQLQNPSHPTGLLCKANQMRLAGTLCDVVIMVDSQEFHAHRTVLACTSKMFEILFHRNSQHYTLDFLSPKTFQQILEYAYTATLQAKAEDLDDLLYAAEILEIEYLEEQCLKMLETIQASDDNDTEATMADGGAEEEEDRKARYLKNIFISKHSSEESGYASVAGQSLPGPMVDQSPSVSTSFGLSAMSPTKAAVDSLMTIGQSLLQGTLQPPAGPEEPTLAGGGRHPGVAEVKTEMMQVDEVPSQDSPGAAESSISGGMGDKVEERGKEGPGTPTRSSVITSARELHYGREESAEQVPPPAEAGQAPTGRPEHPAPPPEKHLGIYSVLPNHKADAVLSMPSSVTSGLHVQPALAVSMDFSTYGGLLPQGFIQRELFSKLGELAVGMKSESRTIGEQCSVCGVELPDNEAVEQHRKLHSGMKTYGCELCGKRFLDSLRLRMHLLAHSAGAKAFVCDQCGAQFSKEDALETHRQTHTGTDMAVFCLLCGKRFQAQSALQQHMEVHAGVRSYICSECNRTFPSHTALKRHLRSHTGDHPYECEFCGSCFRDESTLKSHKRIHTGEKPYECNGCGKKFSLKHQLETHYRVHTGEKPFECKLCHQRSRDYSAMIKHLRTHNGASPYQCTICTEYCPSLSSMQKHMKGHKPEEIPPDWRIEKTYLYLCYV
The experiment can be described thus: yeast two-hybrid screen of a human heart cDNA library (Clontech system), HB-EGF domain as bait.

This passage reports binding results from US7498127.

No constants are given. Whether binding was seen depends on the method and setting. Some binding calls cover weakened binding; strength is not graded here.

As for RYHRRGGYDVENEEKVKLGMTNSH [intracellular domain (185-208aa) of the HB-EGF], the binding entry is given as “binds”.
